Measurements: patent publication US6537553B1, “Leukosialin: Ig fusion proteins” (La Jolla Cancer Research Foundation, priority 1993, dated 2003)
No constants are given. Whether binding was seen depends on the method and setting. Some binding calls cover weakened binding; strength is not graded here.

Target: T1, mouse E-selectin on IL-1β-activated mouse tEnd.1 endothelioma cells (mouse) (UniProt Q00690)
T1 sequence (looked up): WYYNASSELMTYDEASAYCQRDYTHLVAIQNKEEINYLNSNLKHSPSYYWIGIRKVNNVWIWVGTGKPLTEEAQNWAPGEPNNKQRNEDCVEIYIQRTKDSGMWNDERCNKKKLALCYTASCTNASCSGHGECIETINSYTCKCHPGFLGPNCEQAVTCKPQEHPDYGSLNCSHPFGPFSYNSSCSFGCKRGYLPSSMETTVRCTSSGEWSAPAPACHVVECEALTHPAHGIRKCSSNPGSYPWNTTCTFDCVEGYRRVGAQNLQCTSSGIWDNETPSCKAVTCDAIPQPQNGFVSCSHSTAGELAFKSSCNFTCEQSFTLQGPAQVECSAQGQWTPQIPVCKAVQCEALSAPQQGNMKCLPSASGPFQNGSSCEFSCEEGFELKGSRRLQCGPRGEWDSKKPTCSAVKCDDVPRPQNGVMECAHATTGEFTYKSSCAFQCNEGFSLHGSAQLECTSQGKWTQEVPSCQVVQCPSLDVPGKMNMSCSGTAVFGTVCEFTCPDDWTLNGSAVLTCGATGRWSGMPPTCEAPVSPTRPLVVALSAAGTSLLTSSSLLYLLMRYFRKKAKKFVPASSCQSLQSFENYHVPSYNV
Assay: inferred from inhibition of cell adhesion to activated tEnd.1 cells

B1: soluble lamp-1 containing the sialyl Le^x moiety (CHO cells co-transfected with pSRαs-lamp-1 and the Fuc-TIII vector) (protein, UniProt P11279 29-382, looked up)
chain: AMFMVKNGNGTACIMANFSAAFSVNYDTKSGPKNMTFDLPSDATVVLNRSSCGKENTSDPSLVIAFGRGHTLTLNFTRNATRYSVQLMSFVYNLSDTHLFPNASSKEIKTVESITDIRADIDKKYRCVSGTQVHMNNVTVTLHDATIQAYLSNSSFSRGETRCEQDRPSPTTAPPAPPSPSPSPVPKSPSVDKYNVSGTNGTCLLASMGLQLNLTYERKDNTTVTRLLNINPNKTSASGSCGAHLVTLELHSEGTTVLLFQFGMNASSSRFFLQGIQLNTILPDARDPAFKAANGSLRALQATVGNSYKCNAEEHVRVTKAFSVNIFKVWVQAFKVEGGQFGSVEECLLDENSM
modifications: glycans carrying the sialyl Le^x determinant; sites not stated
- binding: binds
